The list shows only some results of the screen, not a fair sample: it gathers tests that were run many times, whatever their T/C, doses with no T/C, and many T/C values between a quarter and a half above the control. Further doses and runs are listed elsewhere. T/C gives the treated animals as a percentage of the vehicle group. Some doses have a count of surviving animals in place of a T/C: the source holds a T/C of zero for them, seemingly a mark for toxic or unscored doses. Some doses without a T/C left all or most animals alive at the check, yet need not have been tolerated: the source hardly ever lists a survival T/C far under the control, and the zero likely stands for such cases as well. Survivors were counted at the toxicity check, usually on the fifth day, unless a day is given; later deaths do not show. Schedules are NCI's codes, read here as Q, the interval in days (D) or hours (H), X, the number of doses. Where survival is the endpoint, the PubChem record calls one and a half times the control and up active, and a quarter to a half above the control has no call in these data; cut-offs in other NCI protocols can differ. Some T/C values are followed by the survivors on the day toxicity was checked, most often the fifth; where none is given, no animal had died by that day.
Test system: BDF1 mice, P388 leukemia ip, median survival T/C
Test: NCI In Vivo Anticancer Drug Screen. Data for tumor model P388 Leukemia (intraperitoneal) in B6D2F1 (BDF1) mice
Conditions: T/C endpoint: median survival time, higher T/C = longer survival
Summary of the method: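 Read-out is survival of treated animals expressed relative to the vehicle group, as a T/C ratio.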

[1] = dose: 100.0 mg/kg/injection, schedule: Q01DX009 (ip), vehicle: saline
[2] = dose: 200.0 mg/kg/injection, schedule: Q04DX003 (ip), vehicle: saline
[3] = dose: 400.0 mg/kg/injection, schedule: Q04DX003 (ip), vehicle: saline
[4] = dose: 200.0 mg/kg/injection, schedule: Q01DX009 (ip), vehicle: saline with Tween-80

Question: Which survivor count (dose: 0.39 mg/kg/injection, schedule: Q01DX009 (ip), vehicle: water) does the source give for `Cc1cc(C)[s+]s1` here?
Answer: 6 of 6

Question: And the survivor count (dose: 1.56 mg/kg/injection, schedule: Q01DX009 (ip), vehicle: water)?
Answer: 5 of 6

Question: And the survivor count (dose: 6.25 mg/kg/injection, schedule: Q01DX009 (ip), vehicle: saline)?
Answer: 6 of 6

Question: What about the survivor count (dose: 12.5 mg/kg/injection, schedule: Q01DX009 (ip), vehicle: saline) of the same compound?
Answer: 6 of 6

Question: What about the survivor count (dose: 25.0 mg/kg/injection, schedule: Q01DX009 (ip), vehicle: saline) of the same compound?
Answer: 6 of 6

Question: What about the survivor count (dose: 50.0 mg/kg/injection, schedule: Q01DX009 (ip), vehicle: saline) of the same compound?
Answer: 6 of 6

Question: And the survivor count [1]?
Answer: 1 of 6

Question: And the survivor count (dose: 200.0 mg/kg/injection, schedule: Q01DX009 (ip), vehicle: saline)?
Answer: 2 of 6

Question: For `OC1CC2CCC(C1)N2CCCN1c2ccccc2Sc2ccc(Cl)cc21` (stereo not given), which survivor count [1] is on record?
Answer: 5 of 6

Question: What about the survivor count [2] of the same compound?
Answer: 2 of 6

Question: What about the survivor count [3] of the same compound?
Answer: 0 of 6

Question: For `CCCCNC(C)(C)CO`, which survivor count [2] is on record?
Answer: 0 of 6

Question: What about the survivor count [3] of the same compound?
Answer: 0 of 6

Question: `COc1cc2c3c(c1O)C1(C=CC(=O)C=C1)CC3N(C)CC2` (stereo not given) was tested. Which T/C [4] did it give?
Answer: 133 % of control [5 of 6 alive]

Question: And the survivor count (dose: 400.0 mg/kg/injection, schedule: Q01DX009 (ip), vehicle: saline with Tween-80)?
Answer: 4 of 6

Question: `CC(=O)OC(C)(C)c1ccccc1[S+]1OC(C)(C)c2ccccc21` (stereo not given) was tested. Which survivor count (dose: 200.0 mg/kg/injection, schedule: Q01DX001 (ip), vehicle: other) did it give?
Answer: 0 of 6

Question: And the survivor count (dose: 400.0 mg/kg/injection, schedule: Q01DX001 (ip), vehicle: other)?
Answer: 0 of 6

Question: With `O=c1[nH]c(=O)n([C@H]2CCCO2)cc1F` as the compound, how does the T/C (dose: 201.0 mg/kg/injection, schedule: Q01DX009 (ip), vehicle: Klucel (hydroxypropylcellulose) (HPC)) read?
Answer: 129 % of control

Question: What about the T/C (dose: 645.0 mg/kg/injection, schedule: Q04DX003 (ip), vehicle: Klucel (hydroxypropylcellulose) (HPC)) of the same compound?
Answer: 132 % of control

Question: What about the survivor count (dose: 833.0 mg/kg/injection, schedule: Q04DX003 (ip), vehicle: water) of the same compound?
Answer: 1 of 8

Question: And the T/C (dose: 957.0 mg/kg/injection, schedule: Q01DX001 (ip), vehicle: Klucel (hydroxypropylcellulose) (HPC))?
Answer: 137 % of control

Question: What about the T/C (dose: 1436.0 mg/kg/injection, schedule: Q01DX001 (ip), vehicle: Klucel (hydroxypropylcellulose) (HPC)) of the same compound?
Answer: 137 % of control

Question: Which survivor count (dose: 200.0 mg/kg/injection, schedule: Q01DX009 (ip), vehicle: water) does the source give for `CCN(CC)Cc1c(C)[nH]c2c(OC)cccc2c1=O` here?
Answer: 0 of 6

Question: Which results are given for `C[N+](C)(C)c1ncncn1`?
Answer: survivor count (dose: 100.0 mg/kg/injection, schedule: Q01DX001 (ip), vehicle: saline): 2 of 6; survivor count (dose: 200.0 mg/kg/injection, schedule: Q01DX001 (ip), vehicle: saline): 2 of 6; survivor count (dose: 400.0 mg/kg/injection, schedule: Q01DX001 (ip), vehicle: saline): 0 of 6

Question: `CCOC(=O)C/C(C)=N\NC(=O)c1ccncc1` was tested. Which survivor count (dose: 37.5 mg/kg/injection, schedule: Q01DX009 (ip), vehicle: saline with Tween-80) did it give?
Answer: 7 of 7

Question: Which survivor count [4] does the source give for `NNC(=O)c1ccc(Cl)c(Cl)c1` here?
Answer: 3 of 6

Question: And the survivor count (dose: 400.0 mg/kg/injection, schedule: Q01DX001 (ip), vehicle: saline sonified)?
Answer: 0 of 6

Question: For `COc1cc(NS(C)(=O)=O)ccc1Nc1c2ccc([N+](=O)[O-])cc2nc2c(C)c(C)ccc12`, which T/C (dose: 0.66 mg/kg/injection, schedule: Q04DX003 (ip), vehicle: saline with Tween-80) is on record?
Answer: 137 % of control

From PubChem BioAssay AID328 (DTP/NCI, 2004)
